Among the data in doi:10.1101/2024.11.14.623552 are binding values, retold here.

Chains of the proteins cited; added tags and fusions are not shown.
UniProt P23696: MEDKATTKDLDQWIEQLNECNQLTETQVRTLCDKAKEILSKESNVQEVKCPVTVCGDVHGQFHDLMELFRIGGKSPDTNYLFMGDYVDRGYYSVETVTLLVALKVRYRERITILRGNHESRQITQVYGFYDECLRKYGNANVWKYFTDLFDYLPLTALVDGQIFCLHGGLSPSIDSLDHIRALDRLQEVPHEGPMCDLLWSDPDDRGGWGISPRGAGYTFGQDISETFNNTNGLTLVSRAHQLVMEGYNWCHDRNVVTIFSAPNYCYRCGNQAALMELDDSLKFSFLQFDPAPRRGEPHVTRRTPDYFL

Where two headings read alike, the source gives them in different places. These are yes or no findings as the source states them, for the method shown. Binding seen in cells or lysates may run through a third protein. Some results given as binding are weak or reduced against the parent protein; the word gives no strength.

Common to all, as to assay: co-IP
The target of assay [1] is T1, Merlin (Mer) (Drosophila) (UniProt Q24564).
T1 sequence: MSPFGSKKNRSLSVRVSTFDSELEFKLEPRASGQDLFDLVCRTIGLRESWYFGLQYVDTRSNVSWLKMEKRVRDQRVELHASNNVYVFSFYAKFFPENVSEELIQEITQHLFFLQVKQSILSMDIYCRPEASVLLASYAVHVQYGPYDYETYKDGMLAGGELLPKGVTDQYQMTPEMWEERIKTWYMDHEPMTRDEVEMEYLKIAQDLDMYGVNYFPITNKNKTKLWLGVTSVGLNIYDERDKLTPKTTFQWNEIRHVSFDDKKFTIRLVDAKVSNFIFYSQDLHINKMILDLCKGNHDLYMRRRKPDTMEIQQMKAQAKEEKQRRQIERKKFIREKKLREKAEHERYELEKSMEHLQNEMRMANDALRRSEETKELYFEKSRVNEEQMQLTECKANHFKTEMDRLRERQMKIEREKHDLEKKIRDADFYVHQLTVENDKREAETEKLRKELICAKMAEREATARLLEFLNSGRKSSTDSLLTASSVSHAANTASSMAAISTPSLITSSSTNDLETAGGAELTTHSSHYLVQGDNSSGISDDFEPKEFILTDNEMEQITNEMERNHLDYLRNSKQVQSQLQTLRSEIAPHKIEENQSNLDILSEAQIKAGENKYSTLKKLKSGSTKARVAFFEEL

Assay [2] deals with T2, Kibra (Kib) (Drosophila) (UniProt Q9VFG8).
T2 sequence: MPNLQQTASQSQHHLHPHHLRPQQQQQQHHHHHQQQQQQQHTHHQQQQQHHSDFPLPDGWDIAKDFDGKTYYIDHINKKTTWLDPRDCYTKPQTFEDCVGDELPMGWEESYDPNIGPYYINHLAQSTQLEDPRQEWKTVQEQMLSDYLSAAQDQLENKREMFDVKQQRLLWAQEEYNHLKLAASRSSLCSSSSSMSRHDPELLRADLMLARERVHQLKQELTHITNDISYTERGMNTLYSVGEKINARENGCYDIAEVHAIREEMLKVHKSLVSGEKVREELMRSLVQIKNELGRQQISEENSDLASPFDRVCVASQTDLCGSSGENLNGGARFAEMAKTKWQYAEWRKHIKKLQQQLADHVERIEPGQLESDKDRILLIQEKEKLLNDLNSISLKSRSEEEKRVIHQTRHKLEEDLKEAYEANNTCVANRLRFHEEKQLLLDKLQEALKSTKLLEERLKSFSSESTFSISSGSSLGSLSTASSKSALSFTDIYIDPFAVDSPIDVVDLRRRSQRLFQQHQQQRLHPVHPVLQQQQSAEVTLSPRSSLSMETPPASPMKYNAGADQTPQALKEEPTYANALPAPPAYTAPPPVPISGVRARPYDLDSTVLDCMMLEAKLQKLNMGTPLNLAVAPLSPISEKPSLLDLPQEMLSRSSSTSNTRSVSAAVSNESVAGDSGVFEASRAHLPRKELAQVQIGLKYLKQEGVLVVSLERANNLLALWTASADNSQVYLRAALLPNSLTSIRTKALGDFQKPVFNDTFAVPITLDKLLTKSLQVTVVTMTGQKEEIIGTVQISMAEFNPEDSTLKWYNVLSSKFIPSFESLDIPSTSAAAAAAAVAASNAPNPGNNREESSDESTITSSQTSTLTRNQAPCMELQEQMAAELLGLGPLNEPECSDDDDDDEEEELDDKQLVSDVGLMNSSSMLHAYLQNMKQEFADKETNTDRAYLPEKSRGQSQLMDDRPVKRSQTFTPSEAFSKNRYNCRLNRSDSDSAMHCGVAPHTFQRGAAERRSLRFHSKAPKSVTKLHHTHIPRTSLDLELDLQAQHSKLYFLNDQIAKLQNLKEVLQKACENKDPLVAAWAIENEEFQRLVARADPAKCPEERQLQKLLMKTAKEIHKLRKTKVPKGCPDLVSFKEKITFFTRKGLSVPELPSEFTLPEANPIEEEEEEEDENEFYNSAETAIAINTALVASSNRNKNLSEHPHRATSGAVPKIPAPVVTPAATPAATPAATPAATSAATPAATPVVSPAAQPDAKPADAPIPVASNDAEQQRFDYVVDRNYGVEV

For assay [3], the target named is T3, Expanded residues 1-468 (Ex^1-468) (Drosophila) (UniProt Q07436).
T3 sequence: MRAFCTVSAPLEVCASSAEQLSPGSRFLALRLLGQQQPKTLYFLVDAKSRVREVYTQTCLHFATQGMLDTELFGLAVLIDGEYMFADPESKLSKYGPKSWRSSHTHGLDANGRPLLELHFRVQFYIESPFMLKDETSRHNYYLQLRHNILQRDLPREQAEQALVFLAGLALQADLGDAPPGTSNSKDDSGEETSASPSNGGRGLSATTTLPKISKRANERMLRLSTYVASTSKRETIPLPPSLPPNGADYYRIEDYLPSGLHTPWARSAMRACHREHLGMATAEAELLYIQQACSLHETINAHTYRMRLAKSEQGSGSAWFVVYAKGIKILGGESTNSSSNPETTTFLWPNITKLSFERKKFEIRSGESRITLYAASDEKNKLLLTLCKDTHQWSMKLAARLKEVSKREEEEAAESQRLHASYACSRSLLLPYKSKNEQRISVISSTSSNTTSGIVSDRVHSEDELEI

The target of another assay is T4, Twins (Tws) (Drosophila) (UniProt P36872).
T4 sequence: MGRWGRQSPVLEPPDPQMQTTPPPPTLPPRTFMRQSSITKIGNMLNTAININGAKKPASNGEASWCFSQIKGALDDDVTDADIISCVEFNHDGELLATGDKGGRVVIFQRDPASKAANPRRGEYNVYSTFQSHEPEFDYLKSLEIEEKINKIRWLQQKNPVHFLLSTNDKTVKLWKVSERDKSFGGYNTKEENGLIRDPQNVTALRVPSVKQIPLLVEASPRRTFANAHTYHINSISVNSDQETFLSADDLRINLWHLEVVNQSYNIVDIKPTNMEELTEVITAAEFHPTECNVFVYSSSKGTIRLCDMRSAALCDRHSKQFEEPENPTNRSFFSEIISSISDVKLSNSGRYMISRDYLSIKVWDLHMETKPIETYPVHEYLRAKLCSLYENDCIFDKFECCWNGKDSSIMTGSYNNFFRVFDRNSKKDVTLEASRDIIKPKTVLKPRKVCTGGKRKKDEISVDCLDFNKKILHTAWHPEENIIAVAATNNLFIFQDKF

Assay [4] has as its target T2, Kibra (Kib) (Drosophila). The source holds these as a separate data set.

Consider “Microtubule star (Mts), catalytic subunit of PP2A, wild type (from UniProt P23696 1-309) (enzyme)”, for which the figures for the binding entry (in assay [1]; with Kibra (Kib) (Drosophila) [2]; in assay [3]) were “no binding”, “binds” and “binds”, respectively.

B1: Expanded (Ex), construct of Fig. 4K not stated (protein, UniProt Q07436 1-1427)
chain: MRAFCTVSAPLEVCASSAEQLSPGSRFLALRLLGQQQPKTLYFLVDAKSRVREVYTQTCLHFATQGMLDTELFGLAVLIDGEYMFADPESKLSKYGPKSWRSSHTHGLDANGRPLLELHFRVQFYIESPFMLKDETSRHNYYLQLRHNILQRDLPREQAEQALVFLAGLALQADLGDAPPGTSNSKDDSGEETSASPSNGGRGLSATTTLPKISKRANERMLRLSTYVASTSKRETIPLPPSLPPNGADYYRIEDYLPSGLHTPWARSAMRACHREHLGMATAEAELLYIQQACSLHETINAHTYRMRLAKSEQGSGSAWFVVYAKGIKILGGESTNSSSNPETTTFLWPNITKLSFERKKFEIRSGESRITLYAASDEKNKLLLTLCKDTHQWSMKLAARLKEVSKREEEEAAESQRLHASYACSRSLLLPYKSKNEQRISVISSTSSNTTSGIVSDRVHSEDELEIMINTPPAPLAAPSTESLALAHLLDRPSVSRQTSSVGQMSLKDLEEQLAALSVRPQDASSNGATIVTNSSVQRNSMGTTANDSSTATDSPSSQHNIGSQCSSTCSTVVVTSPVNGAGASSSGAPIPVHSTSSSLELGFSHTAQNSALSETSPDDFLSTSAREETESVSGASGVYTLAHGAPPTETSGVYTMHSSELTGQSSEIAESEKSSHYGMFQPQKLEETHVQHSDSVDGKKKEDFRPRSDSNVSTGSSFRGDGSDPTDNKHSLLSAEELTNLIVGRGTYPSRKTVSSSLHSDCDYVTLPLGDQGEEEVDQPPAPPPPYSARHEKTGLCGPPIAKPIPKPIAVVAPKPDSPPCSPPVPPAPIPAPPPAIRRRDPPPYSISSKPRPTSLISVSSSAHPAPSAAGSMSSLKSEEVTARFITTRPQISILKAHTSLIPDGAKPSYAAPHHCSSVASSNGSVCSHQLSQQSLHNSNYAGGSQASLHHHHVPSHHRHSGSAAIGIVPYGLHKSTASLHHQQSCVLLPVIKPRQFLAPPPPSLPRQPPPPPPPNHPHLASHLYEREMARKQLELYQQQLYSDVDYVIYPIQDPAVSQQEYLDAKQGSLLAAMAQAAPPPPHHPYLAMQVSPAIYRSTPYLPLTLSTHSRYASTQNLSDTYVQLPGPGYSPLYSPSMASLCSSYEPPPPPPLHPAALAAAAAAGAGSSSSSMFARSRSDDNILNSLDLLPKGKRLPPPPPPPYVNRRLKKPPMPAPSEKPPPIPSKPIPSRMSPIPPRKPPTLNPHHANSPLTKTSSGAQWAGERPRPDLGLGLGLNRGNNSILAQLQASMVAQSHAQAQAQALDIALLREKSKHLDLPLISALCNDRSLLKQTKVVINPKTGQEMPTSSAQPSGATTNGVANSSAGAGTLSKARKGSTVSHRHPQDKLPPLPVQQLAEANNYVIDPAVMMKQQQQQQQHNKTS
Take B1: the binding entry with Twins (Tws) (Drosophila) is recorded as “binds”.

B2: Twins (Tws) (protein, UniProt P36872 1-499)
chain: T4 sequence
Regarding B2, the binding result with Kibra (Kib) (Drosophila) [4] was “no binding”.
